## Library screening results

Chains of the proteins cited; added tags and fusions are not shown.
UniProt E9BF75, entry or part of it: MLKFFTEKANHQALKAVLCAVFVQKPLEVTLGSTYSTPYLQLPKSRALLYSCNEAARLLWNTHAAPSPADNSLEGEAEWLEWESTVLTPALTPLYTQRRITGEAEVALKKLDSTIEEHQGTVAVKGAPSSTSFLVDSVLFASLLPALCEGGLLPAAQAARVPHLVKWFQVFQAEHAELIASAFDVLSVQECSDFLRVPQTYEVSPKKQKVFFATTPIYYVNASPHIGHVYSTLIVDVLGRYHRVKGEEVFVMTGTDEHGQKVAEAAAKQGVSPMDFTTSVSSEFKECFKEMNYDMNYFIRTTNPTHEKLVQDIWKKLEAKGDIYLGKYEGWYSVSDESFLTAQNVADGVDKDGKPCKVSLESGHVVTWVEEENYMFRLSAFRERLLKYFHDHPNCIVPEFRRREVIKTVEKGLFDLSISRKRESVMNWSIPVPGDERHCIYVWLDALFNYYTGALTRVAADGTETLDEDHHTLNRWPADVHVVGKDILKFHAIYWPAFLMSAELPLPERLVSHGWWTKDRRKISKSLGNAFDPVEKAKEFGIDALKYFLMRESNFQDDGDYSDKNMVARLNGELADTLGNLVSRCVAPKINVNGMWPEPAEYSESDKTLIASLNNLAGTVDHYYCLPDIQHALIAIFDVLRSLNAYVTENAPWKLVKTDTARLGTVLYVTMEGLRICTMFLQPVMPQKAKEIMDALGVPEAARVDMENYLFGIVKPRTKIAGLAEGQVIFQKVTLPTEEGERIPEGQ

All values are in %. The record does not define 0% and 100%; most values in the screen are far below 50% and negative numbers occur (in some assays of this library far below -100). The compounds are a random part of those screened.

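Methionyl-tRNA synthetase (putative), Leishmania donovani (UniProt E9BF75). Primary screen of methionyl-tRNA synthetase; the read-out is not stated. The test concentration is not given. The values are filed as inhibition. About 68,000 compounds were tested under these conditions; 0.035% (about 24) showed 50% or more at least once.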

Compound,Inhibition
CC(C)[C@@H]1CN(Cc2ccccc2C#N)C[C@H]1N(C)C,8.844%
COCC(C)(C)NC(=O)CC(c1ccccc1)C(F)(F)F (stereo not shown),14.99%
O=C1NC2(CCN(Cc3nccs3)CC2)CC1c1ccncc1 (stereo not shown),11.59%
CN(Cc1cccs1)C1CCC[C@@H]2CN(C(=O)c3cnccn3)C[C@H]12 (stereo partly shown),15.58%
Cc1cc(CN[C@H](C(N)=O)[C@@H](C)O)c(C)s1,6.62%
Cc1ccc(C(=O)NC2CCN(C(=O)Nc3ccccn3)CC2)o1,2.083%
Cn1cc(S(=O)(=O)N2CCCC(Cn3cncn3)C2)cn1 (stereo not shown),11.98%
Cc1cc(C(=O)N2CCN[C@H](C)C2)c2ccc(F)cc2n1,3.427%
C[C@@H]1CN(C(=O)C2CCS(=O)(=O)CC2)C[C@]1(C)O,13.19%
CC(=O)N1CCC2(CC1)C(=O)N(CC1CCN(C)CC1)c1ccccc12,7.283%
COCCN1C[C@H]2[C@@H](C1)N(C(=O)COc1ccccc1)CC[C@H]2OC,7.296%
CN1CC(=O)N(c2ccccc2)CC12CCN(S(C)(=O)=O)C2 (stereo not shown),6.032%
CCc1noc(CN(C)C(=O)C2COc3ccccc3C2)n1 (stereo not shown),15.38%
CCOc1cc(NC(=O)N2CCC(c3nnc[nH]3)CC2)ccc1C,8.571%
CC(C)N(Cc1ccc(C#N)cc1)C(=O)Nc1ccncc1,20.72%
CN(C)c1nccc(NCc2cc(-c3ccco3)n[nH]2)n1,15.78%
CN(CC(=O)N1CCCCC1c1nccs1)C1CC1 (stereo not shown),4.918%
CCS(=O)(=O)N1CCC(NC(=O)c2ccccc2O)CC1,22.19%
Cc1cc(C2CCCN2CCCc2nc3ccccc3o2)on1 (stereo not shown),10.46%
COc1cccc(CCNC(=O)NC(C)C)c1O,10.47%
CC(NC(=O)Cc1cccs1)c1nnc2n1CCC2 (stereo not shown),16.11%
O=C(NC[C@H]1OC[C@@H](NCc2ccccn2)[C@@H]1O)c1ccncc1,13.53%
N#Cc1cccnc1N1CCN(C(=O)CCC(=O)c2cccs2)CC1,-8.696%
NC(=O)CN(Cc1ncc(-c2ccc(Cl)cc2)o1)C1CCCC1,13.69%
CCCc1ccc(CN2CCN(C(=O)N(C)C)[C@@H]3CS(=O)(=O)C[C@@H]32)o1,5.155%
CCC(=O)N1CCC(Cc2ccccc2-c2ccccc2)(C(N)=O)C1 (stereo not shown),12.89%
CN1C(=O)CC[C@]12CC[C@@H](NC(=O)NCc1cccnc1)CC2,12.99%
O[C@H]1[C@H](n2cc(-c3ccccn3)nn2)c2ccccc2C12CCNCC2,15.36%
Fc1ccc(CN2CCCCC2Cn2cncn2)c2ncccc12 (stereo not shown),31.68%
CN(c1cccc(C#N)c1)S(=O)(=O)c1cc(C(=O)O)ccc1Cl,8.711%
CNC(=O)N1CCc2cc(C(=O)N(C)C)c(NCC3CC3)nc2CC1,16.73%
Cc1c(CNC2CCN(c3ccccc3OC(F)F)C2)cnn1C (stereo not shown),6.859%
Cc1nc([C@@H]2C[C@@H]3CCN(C(=O)Cc4cccs4)C[C@H]3O2)no1,4.575%
CCOc1cc(=O)n2c(c1C(=O)OCc1cccc(C)c1)CCCC2,8.115%
COc1ccccc1N1CCN(C(=O)CCc2nncn2C)C(C)C1 (stereo not shown),1.401%
Cc1nc(C)c(CC(=O)NCc2cccnc2OC2CCCC2)c(=O)[nH]1,10.8%
Cc1ccc(OCc2occc2C(=O)N2C[C@@H]3[C@@H](CN(C)C)[C@@H]3C2)cc1,7.563%
Cc1ccc(-c2cc(C3CCNCC3)nc(C)n2)cc1,14.89%
O=C(c1ccc(Oc2cccnc2)cc1)N1CCN(CCO)CC1,-5.177%
CSc1ccc(-n2nnc(C(=O)O)c2-c2ccccn2)cc1,0.9091%
COc1ccc(-c2cnc(N(C)C)nc2C2CNCCO2)cc1 (stereo not shown),16.04%
Cn1cc(C(=O)N[C@H]2CN(Cc3nccs3)[C@@H]3CCCO[C@H]23)cn1,14.81%
NC(=O)C1CCN(C(=O)CCn2c(C(F)(F)F)cc3cccnc32)CC1,19.94%
OCc1cc2ccccc2nc1NC1CC=CC1,20.64%
Cc1ccnc(C2CCCN2C(=O)CN(C)C)n1 (stereo not shown),9.709%
CCC1(C)Cc2ccccc2-c2nc(NCCO)nc(O)c21 (stereo not shown),9.329%
O=S(=O)(NCc1ccc(S(=O)(=O)N2CCCC2)s1)c1ccc(F)cc1Cl,11.82%
O=C(NC1CC1)N1CC[C@H]2[C@H]1CCN2c1ncccn1,18.49%
O=C(c1cnccn1)N1CC[C@H]2C[C@@H](c3ccncn3)O[C@@H]2C1,1.961%
O=C(CCCc1nnc(-c2ccccc2)o1)N1CCC1,8.434%
COCC(=O)N(Cc1ccc2[nH]ccc2c1)C1CC1,14.73%
Cc1nc(C(C)NC(=O)c2cn(CCC3CCCCC3)nn2)n[nH]1 (stereo not shown),11.8%
CNS(=O)(=O)c1cc(C(=O)NC2CCOc3ccccc32)cc(C)c1C (stereo not shown),7.746%
Cn1ccc(C(=O)N2CCC(Cc3cccc4cccnc34)C2)n1 (stereo not shown),22.95%

Repeated from the top, 6 entries:

Compound	Inhibition
CC(C)[C@@H]1CN(Cc2ccccc2C#N)C[C@H]1N(C)C	8.844%
COCC(C)(C)NC(=O)CC(c1ccccc1)C(F)(F)F (stereo not shown)	14.99%
O=C1NC2(CCN(Cc3nccs3)CC2)CC1c1ccncc1 (stereo not shown)	11.59%
CN(Cc1cccs1)C1CCC[C@@H]2CN(C(=O)c3cnccn3)C[C@H]12 (stereo partly shown)	15.58%
Cc1cc(CN[C@H](C(N)=O)[C@@H](C)O)c(C)s1	6.62%
Cc1ccc(C(=O)NC2CCN(C(=O)Nc3ccccn3)CC2)o1	2.083%

Measurements from “University of Dundee, Small-Polar-MMV Screening Library” (2021), ChEMBL document CHEMBL3988442.